For assay [1], the target named is T1, CCCTC-binding factor (CTCF) (human (endogenous in U251)) (UniProt P49711).
T1 sequence: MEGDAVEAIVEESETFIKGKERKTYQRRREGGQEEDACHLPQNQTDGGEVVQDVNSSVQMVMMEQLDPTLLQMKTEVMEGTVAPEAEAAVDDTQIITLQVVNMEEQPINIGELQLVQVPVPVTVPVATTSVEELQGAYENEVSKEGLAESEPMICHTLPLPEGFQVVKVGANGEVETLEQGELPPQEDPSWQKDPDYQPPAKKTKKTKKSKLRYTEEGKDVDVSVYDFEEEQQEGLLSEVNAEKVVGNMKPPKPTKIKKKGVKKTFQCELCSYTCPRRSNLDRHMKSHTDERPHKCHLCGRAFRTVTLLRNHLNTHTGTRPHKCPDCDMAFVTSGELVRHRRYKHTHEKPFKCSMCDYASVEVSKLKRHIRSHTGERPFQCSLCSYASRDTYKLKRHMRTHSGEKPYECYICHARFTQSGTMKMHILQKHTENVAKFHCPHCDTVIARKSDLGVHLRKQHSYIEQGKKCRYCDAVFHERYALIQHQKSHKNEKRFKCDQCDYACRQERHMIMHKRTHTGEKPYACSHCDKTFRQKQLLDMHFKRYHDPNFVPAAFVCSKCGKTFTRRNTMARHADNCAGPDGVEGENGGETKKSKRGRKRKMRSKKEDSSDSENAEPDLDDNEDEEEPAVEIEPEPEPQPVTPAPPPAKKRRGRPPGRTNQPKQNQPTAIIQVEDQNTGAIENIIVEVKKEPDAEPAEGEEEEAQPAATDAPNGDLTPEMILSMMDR
As to the kind of experiment: proximity ligation; Duolink PLA on fixed, permeabilised U251 cells treated with 150 μM TMZ for 24 h; also with αKG, TET1/TET2 overexpression, TET1/TET2 knockout, CTCF knockdown.

Sequences of proteins named here, by UniProt entry; tags and fusion partners are left off.
UniProt P51587: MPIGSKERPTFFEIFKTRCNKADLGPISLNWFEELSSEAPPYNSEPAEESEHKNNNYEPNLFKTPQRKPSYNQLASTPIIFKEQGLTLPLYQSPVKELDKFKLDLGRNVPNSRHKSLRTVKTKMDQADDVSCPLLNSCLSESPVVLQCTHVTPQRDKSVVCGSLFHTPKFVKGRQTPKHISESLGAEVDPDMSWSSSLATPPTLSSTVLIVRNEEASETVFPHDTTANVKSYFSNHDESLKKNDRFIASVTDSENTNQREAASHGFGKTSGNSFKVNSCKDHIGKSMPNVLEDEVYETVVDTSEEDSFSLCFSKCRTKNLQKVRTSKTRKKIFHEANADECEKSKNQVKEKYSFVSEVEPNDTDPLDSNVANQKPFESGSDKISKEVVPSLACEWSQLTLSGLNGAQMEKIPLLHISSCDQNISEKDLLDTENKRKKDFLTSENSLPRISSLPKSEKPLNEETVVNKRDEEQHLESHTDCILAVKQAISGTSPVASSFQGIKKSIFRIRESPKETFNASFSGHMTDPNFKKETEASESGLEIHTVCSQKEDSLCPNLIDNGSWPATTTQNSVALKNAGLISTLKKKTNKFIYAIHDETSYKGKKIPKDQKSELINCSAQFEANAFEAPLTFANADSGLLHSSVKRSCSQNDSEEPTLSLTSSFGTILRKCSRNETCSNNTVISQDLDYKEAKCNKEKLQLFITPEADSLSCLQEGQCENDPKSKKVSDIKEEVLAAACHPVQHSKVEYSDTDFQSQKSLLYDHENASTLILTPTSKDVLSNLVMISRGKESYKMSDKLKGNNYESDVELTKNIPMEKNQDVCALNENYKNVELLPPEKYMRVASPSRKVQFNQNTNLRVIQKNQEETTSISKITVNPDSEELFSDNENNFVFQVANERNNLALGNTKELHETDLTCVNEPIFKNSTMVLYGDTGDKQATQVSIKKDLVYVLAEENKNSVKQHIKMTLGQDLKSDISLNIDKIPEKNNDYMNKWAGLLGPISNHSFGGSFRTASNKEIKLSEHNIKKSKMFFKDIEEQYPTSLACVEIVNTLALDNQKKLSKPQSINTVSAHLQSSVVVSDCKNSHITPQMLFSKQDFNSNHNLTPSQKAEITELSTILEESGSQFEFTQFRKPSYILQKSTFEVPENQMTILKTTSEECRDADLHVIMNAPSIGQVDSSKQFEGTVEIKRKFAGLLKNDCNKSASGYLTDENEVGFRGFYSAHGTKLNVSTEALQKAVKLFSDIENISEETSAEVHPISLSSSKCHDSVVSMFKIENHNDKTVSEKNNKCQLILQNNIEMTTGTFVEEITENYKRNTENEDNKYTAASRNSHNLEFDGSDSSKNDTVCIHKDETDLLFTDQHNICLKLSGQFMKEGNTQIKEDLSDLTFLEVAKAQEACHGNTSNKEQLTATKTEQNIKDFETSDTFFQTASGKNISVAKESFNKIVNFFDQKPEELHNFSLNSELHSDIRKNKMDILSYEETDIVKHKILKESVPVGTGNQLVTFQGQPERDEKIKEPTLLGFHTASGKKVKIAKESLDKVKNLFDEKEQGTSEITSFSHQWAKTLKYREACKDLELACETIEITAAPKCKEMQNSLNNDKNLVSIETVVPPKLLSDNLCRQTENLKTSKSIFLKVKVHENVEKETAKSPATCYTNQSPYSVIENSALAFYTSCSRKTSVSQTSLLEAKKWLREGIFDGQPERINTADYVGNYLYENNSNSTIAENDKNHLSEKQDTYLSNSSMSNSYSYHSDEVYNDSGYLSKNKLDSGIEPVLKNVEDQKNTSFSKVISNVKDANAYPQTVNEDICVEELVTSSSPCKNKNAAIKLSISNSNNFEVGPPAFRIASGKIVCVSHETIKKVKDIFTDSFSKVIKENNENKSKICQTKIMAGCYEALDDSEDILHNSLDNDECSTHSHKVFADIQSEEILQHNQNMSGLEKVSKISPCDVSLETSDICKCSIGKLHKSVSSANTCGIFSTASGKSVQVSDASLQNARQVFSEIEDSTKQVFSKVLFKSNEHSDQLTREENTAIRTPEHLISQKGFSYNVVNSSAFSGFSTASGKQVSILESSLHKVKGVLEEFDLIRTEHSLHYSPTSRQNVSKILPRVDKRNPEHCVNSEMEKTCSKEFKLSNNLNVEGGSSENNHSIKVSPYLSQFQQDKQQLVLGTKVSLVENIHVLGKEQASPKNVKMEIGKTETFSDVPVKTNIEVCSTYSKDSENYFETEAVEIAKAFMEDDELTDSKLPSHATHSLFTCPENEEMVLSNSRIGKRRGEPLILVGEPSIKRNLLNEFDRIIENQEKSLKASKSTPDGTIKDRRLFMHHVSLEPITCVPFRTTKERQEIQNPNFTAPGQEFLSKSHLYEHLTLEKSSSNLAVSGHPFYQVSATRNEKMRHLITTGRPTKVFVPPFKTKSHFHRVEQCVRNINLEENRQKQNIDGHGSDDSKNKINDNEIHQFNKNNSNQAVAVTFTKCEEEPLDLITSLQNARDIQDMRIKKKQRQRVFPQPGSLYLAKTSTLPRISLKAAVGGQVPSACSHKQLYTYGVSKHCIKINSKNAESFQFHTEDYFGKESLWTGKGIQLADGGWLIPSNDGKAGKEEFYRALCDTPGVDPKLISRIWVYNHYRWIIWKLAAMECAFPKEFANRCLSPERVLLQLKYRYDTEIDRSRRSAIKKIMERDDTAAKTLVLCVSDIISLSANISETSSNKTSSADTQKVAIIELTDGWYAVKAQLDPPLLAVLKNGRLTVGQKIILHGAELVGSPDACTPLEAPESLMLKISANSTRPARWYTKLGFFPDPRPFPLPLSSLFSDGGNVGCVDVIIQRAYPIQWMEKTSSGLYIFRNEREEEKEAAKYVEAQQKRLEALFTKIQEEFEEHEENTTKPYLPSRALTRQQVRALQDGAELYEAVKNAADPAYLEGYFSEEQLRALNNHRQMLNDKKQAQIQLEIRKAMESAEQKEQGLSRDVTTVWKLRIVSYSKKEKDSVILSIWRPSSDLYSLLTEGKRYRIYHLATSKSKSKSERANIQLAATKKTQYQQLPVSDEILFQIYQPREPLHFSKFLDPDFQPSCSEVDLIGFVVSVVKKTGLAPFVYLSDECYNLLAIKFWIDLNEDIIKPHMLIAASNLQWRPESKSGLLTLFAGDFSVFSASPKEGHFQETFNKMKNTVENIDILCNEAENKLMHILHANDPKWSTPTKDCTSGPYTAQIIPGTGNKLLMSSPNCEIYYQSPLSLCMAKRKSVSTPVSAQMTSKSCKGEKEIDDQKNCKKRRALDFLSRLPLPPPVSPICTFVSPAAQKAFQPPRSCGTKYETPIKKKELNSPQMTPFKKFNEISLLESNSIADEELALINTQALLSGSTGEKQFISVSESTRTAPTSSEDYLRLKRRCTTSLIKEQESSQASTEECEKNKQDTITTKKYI
UniProt Q06609: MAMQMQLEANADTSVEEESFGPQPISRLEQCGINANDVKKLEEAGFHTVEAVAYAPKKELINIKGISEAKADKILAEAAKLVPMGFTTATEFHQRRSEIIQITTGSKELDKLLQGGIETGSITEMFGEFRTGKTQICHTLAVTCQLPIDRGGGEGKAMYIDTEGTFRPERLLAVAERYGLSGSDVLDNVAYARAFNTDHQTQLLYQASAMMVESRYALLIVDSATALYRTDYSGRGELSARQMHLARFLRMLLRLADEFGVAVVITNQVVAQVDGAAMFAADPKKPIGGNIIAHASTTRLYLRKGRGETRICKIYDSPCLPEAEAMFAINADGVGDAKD

Assay [2] has as its target T1, CCCTC-binding factor (CTCF) (human (endogenous in U251)). Kind of assay: co-IP; Dynabeads Protein G with 2 μg antibody, cell lysates of U251 (IDH1 WT, R132H, R132C) treated with 150 μM TMZ; also with D-2-HG, αKG, AG-120, TET1/TET2 overexpression or knockout, CTCF knockdown; IgG as control.

Results are given in words; binding and its absence hold for the method and conditions named. In cells and extracts the contact can be indirect. Some binding calls cover weakened binding; strength is not graded here.

As to BRCA2 (from UniProt P51587 1-3418), the binding entry in assay [1] and in assay [2] was “binds” throughout.

For RAD51 (from UniProt Q06609 1-339), the binding entry in assay [1] and in assay [2] was “binds” throughout.

The values above are taken from paper PMC11806014.
